Test results from paper PMC7401805, “Tissue specific requirement of Drosophila Rcd4 for centriole duplication and ciliogenesis” (The Journal of Cell Biology, 2020).

The chains behind the UniProt entries cited, without tags or fusion partners.
UniProt A1Z8X3: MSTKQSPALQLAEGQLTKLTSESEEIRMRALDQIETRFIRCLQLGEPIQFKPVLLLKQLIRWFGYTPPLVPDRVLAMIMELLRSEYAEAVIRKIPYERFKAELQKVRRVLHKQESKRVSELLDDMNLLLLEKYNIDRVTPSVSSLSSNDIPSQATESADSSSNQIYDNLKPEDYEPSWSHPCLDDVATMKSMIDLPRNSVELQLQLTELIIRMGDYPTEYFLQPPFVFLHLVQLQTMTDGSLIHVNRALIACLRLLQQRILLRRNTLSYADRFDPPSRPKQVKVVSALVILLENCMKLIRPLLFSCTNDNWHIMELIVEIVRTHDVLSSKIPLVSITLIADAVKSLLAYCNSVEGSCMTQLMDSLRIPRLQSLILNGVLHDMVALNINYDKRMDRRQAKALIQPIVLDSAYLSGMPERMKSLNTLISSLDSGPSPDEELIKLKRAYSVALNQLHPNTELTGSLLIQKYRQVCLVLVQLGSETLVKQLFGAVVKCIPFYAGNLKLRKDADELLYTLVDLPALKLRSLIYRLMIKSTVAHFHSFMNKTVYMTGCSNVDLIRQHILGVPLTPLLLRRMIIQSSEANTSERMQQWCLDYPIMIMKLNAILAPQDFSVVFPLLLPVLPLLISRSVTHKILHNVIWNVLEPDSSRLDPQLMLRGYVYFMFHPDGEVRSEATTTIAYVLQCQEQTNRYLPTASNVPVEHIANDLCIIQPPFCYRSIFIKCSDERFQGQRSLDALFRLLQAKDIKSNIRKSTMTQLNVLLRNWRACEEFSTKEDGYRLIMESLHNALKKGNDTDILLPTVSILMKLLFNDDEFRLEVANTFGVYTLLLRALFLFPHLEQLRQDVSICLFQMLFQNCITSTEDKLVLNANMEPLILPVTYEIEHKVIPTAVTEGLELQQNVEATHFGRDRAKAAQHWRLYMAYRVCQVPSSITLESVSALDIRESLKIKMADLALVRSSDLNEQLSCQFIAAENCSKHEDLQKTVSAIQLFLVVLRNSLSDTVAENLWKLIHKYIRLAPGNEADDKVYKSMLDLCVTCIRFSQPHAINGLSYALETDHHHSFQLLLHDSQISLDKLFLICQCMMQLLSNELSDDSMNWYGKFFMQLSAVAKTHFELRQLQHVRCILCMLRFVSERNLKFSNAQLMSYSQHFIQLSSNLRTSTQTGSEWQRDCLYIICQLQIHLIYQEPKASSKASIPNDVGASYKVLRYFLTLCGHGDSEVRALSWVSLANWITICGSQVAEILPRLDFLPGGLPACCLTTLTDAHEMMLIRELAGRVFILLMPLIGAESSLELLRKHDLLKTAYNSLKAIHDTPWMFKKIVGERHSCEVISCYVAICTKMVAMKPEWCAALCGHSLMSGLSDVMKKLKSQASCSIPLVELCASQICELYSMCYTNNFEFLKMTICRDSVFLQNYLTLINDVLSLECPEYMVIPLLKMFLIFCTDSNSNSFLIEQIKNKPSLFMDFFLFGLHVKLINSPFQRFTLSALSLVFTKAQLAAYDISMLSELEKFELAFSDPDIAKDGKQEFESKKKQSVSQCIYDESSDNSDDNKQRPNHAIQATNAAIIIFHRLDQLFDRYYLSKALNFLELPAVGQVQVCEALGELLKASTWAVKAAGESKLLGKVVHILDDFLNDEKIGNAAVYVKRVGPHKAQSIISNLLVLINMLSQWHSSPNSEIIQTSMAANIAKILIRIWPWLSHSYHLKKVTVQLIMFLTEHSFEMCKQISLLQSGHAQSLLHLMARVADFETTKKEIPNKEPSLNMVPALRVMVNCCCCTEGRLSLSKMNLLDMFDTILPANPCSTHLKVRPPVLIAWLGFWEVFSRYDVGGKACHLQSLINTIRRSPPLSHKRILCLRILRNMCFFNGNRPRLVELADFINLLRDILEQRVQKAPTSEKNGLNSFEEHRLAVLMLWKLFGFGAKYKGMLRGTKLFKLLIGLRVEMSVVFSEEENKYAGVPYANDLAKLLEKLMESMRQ

T1: GFP-tagged Rcd4 (pAct5C-Rcd4-GFP) (Drosophila melanogaster) (UniProt Q9VLM6)
T1 sequence: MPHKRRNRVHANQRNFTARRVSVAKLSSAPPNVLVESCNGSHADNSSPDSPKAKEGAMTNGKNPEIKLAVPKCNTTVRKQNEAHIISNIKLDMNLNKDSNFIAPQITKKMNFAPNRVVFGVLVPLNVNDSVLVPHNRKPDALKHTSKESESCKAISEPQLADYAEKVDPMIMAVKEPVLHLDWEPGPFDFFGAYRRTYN


Assays:
[1] = biological target: T1, GFP-tagged Rcd4 (pAct5C-Rcd4-GFP) (Drosophila melanogaster); experiment: affinity purification with mass spectrometry; GFP-Trap magnetic agarose beads on lysate of D.Mel-2 cells stably expressing the GFP-tagged bait; extraction buffer 75 mM Na-Hepes pH 7.5, 150 mM NaCl, 2 mM MgCl2, 2 mM EGTA, 0.1% NP-40; with or without okadaic acid; Orbitrap-LTQ, Mascot
[2] = biological target: GFP-tagged Ana3 (pAct5C-GFP-Ana3) (Drosophila melanogaster) (UniProt A1Z8X3); experiment: as above

Molecule	binding [1]	binding [2]
Ana3 (endogenous, D.Mel-2 cells) (from UniProt A1Z8X3 1-1977)	binds	
Rcd4 (endogenous, D.Mel-2 cells) (protein, UniProt Q9VLM6 1-199) MPHKRRNRVHANQRNFTARRVSVAKLSSAPPNVLVESCNGSHADNSSPDSPKAKEGAMTNGKNPEIKLAVPKCNTTVRKQNEAHIISNIKLDMNLNKDSNFIAPQITKKMNFAPNRVVFGVLVPLNVNDSVLVPHNRKPDALKHTSKESESCKAISEPQLADYAEKVDPMIMAVKEPVLHLDWEPGPFDFFGAYRRTYN		binds

Results are given in words; binding and its absence hold for the method and conditions named. In cells and extracts the contact can be indirect. These calls come from enrichment with a bait or labelling near it, and not all partners need be listed. For some assays here: Sequences can lack the tags named with a protein.
